In paper PMC10163288:
The list shows a part of the results.

B1: il2ra_site1_3nfp_sap_13_mot_128f4ffdc04e91eb29c4fde961ab618d_0001_000000128_0001_20_34_H_._1b95bd2019fc3dfb9cd1cac0defa3d0f_0001_0001_0000300011_0000001_0_0001 (protein)
chain: SSSSTEELRELLELVERAFRAAREGDEELVEELLEEAKELAEKLGDKIARRLLEDIEKNLSSSSS
B2: il2ra_site2_3nfp_normal_mot_HHH_b2_07129_000000128_0001_19_36_H_._HHH_b2_01739_af2_0001_0000100008_0000001_0 (protein)
chain: SSSSDEEERIEELIEQAEEALKKGDRELARKLLEELARLVWEHRDHEAFALVADLALLIQQSSSS
B3: il2ra_site1_2b5i_normal_mot_f5ff40796168375b462bec8614a1db4a_0001_1_000000138_0001_53_65_H_._HHH_b2_00149_0001_0000400026_0000001_0_af2pred_0001_af2pred_1 (protein)
chain: SSSSSDEELLRELIEALLELAKHIEDPERRRAVLQLALSAARKNNDEELEELVEEVIEELSSSSS
B4: il2ra_site1_2b5i_normal_mot_f5ff40796168375b462bec8614a1db4a_0001_1_000000138_0001_53_65_H_._HHH_b1_01266_0001_0000200014_0000001_0_af2pred_dldesign_0_af2pred (protein)
chain: SSSSSDARELVEELLERARALHEAGRPEEARRLLTLAARIARKAGDEELLARVEALRAELESSSS
B5: il2ra_site1_2b5i_sap_12_mot_HHH_b1_01346_af2_000000027_0001_1_20_H_._HHH_b1_06806_0001_0000800052_0000001_0_0001_af2pred_dldesign_0_af2pred (protein)
chain: SSSSDPRADVEELIAKAKELKEQGKLEEAYKIARLALRLARKLGDEELIARVQALLEEVKSSSSS
B6: il2ra_site1_2b5i_normal_mot_f5ff40796168375b462bec8614a1db4a_0001_1_000000138_0001_53_65_H_._HHH_b1_01133_0001_0000400021_0000001_0 (protein)
chain: SSSSSSSAEDLIEAFEEEAKRIEDPKRARSILHLAVALARANNNEELLEELEELLREVQSSSSSS
B7: il2ra_site2_3nfp_sap_29_mot_HHH_b1_07052_000000239_0001_40_58_H_._5f20bd37ef72b54d9d5808571b4331c8_0001_0001_0000400061_0000001_0_0001_af2pred_0001_1_af2pred_sw … (protein)
chain: SREAAELIQKLLEERPRDDLLSIIFALKADAKYLGNPEYVEKRVEELLEETGDPRLEEVLKLLKK
B8: il2ra_site2_2erj_sap_17_mot_HHH_b1_05198_000000252_0001_1_19_H_._HHH_b1_05377_af2_0001_0000100002_0000001_0_0001 (protein)
chain: SSSSDEEEIEELLEELKEALERGDEELFNRIATRVFELIKKLGDEELARILWRLMREFFNHSSSS
B9: il2ra_site1_1z92_normal_mot_HHH_b1_06519_000000232_0001_23_40_H_._HHH_b2_05843_af2_0001_0000400027_0000001_0 (protein)
chain: SSSSSSEEAIERLAEFLHRDARLTNNEWALRLLEALLRKAERAGDEELAKLIEELIERLKSSSSS
B10: il2ra_site2_3nfp_sap_21_mot_HHH_b1_07318_af2_000000161_0001_22_38_H_._faa969ecf94ee580e2909d366af2a6ce_0001_1_0001_0000200008_0000001_0_0001 (protein)
chain: SSSSSSVAELVQKAMELIKRGNLEEAEELLEEARKEAEEEGDEDTQRYLEALILLLRRESSSSSS
B11: il2ra_site1_3nfp_sap_11_mot_HHH_b2_07135_af2_000000166_0001_22_39_H_._HHH_b1_06265_af2_0001_0000100004_0000001_0_0001 (protein)
chain: DVAEMAIRHAVERNNPRLVERFLEQIERHFRRGNPAAKEAIELLEELLEELGNEELLEEVEKVRK
B12: il2ra_site2_2erj_sap_26_mot_HHH_b1_00245_000000182_0001_1_15_H_._1c4a7000c98f6bc3c941df408db38b63_0001_0001_0001900020_0000001_0_0001 (protein)
chain: SSSSDEIEEEVLELIAEAAHIPDPEKAREVLEKALEIAEEGNDELLRRYVELSLEDLRRASSSSS
B13: il2ra_site2_3nfp_normal_mot_HHH_b1_02369_000000291_0001_21_37_H_._HHH_b1_05396_af2_0001_0000500016_0000001_0 (protein)
chain: SSSSDERERAEELLKEVEELEEEGDRFELLRLLAEATHVAARANDEEIARRLLEIFAELQSSSSS
B14: il2ra_site2_2erj_normal_mot_HHH_b2_06005_000000006_0001_1_15_H_._HHH_b2_01138_af2_0001_0001100031_0000001_0_af2pred_0001_af2pred (protein)
chain: SSSSSELEERVRELLEEAKRIEDPDEALAVLSEAFELVLKNDDEELEEEVLRVLREVNNRSSSSS
B15: il2ra_site2_2erj_sap_27_mot_HHH_b2_04662_000000013_0001_42_56_H_._HHH_b2_03290_0001_0000400030_0000001_0_0001 (protein)
chain: SSSSDLEERVEELLEQVEELRENGDPLRAYSLLAEASLLAFRHNNEELLKKIAEVTRRVWESSSS
B16: il2ra_site2_2erj_normal_mot_HHH_b1_06554_af2_000000190_0001_44_57_H_._HHH_b1_08046_af2_0001_0001100032_0000001_0 (protein)
chain: SSSSSDTLEELEELAEELAEEGDRAYLELILRYLELNREDDNNDEVREAYRIVEELLQRLSSSSS
B17: il2ra_site1_3nfp_normal_mot_HHH_b1_00630_af2_000000193_0001_42_55_H_._56b2e862c5d7020fcb9d25388f5aedda_0001_0001_0000100013_0000001_0 (protein)
chain: DVAERLLEEAKKDGSLKAVSSVARAVAFHRRDPELEERIRELAEKAEENPEVREELIRLAEELLK
B18: il2ra_site1_3nfp_sap_17_mot_HHH_b1_00258_000000025_0001_42_56_H_._HHH_b1_04957_af2_0001_0000600026_0000001_0_0001_af2pred_0001_af2pred_swapped (protein)
chain: STVAIFLELAEKDKGDPEKAIERIIKAIERLRRVPPEEALEFLLEVARRLGNPELERIIEELLRK
B19: il2ra_site2_3nfp_normal_mot_HHH_b2_05513_000000198_0001_20_37_H_._52c50354b804bec8c3157ba16786ada3_0001_0001_0001000025_0000001_0_af2pred_0001_1_af2pred_swapped (protein)
chain: DDLEERLRRSAELAGDPHDAVVFFIAFLEYELGDPEEAIELALEVAEELGDPELERIIRELRKLP

Biological target: il2ra, P01589
Assay: yeast display titration

Binder | apparent Kd
B1 | inactive: no binding seen
B2 | inactive: no binding seen
B3 | inactive: no binding seen
B4 | inactive: no binding seen
B5 | inactive: no binding seen
B6 | inactive: no binding seen
B7 | inactive: no binding seen
B8 | inactive: no binding seen
B9 | inactive: no binding seen
B10 | inactive: no binding seen
B11 | inactive: no binding seen
B12 | inactive: no binding seen
B13 | inactive: no binding seen
B14 | inactive: no binding seen
B15 | inactive: no binding seen
B16 | inactive: no binding seen
B17 | inactive: no binding seen
B18 | inactive: no binding seen
B19 | inactive: no binding seen

A second format for some results above:
Binder	apparent Kd
B12	inactive: no binding seen
B13	inactive: no binding seen
